According to PubChem BioAssay AID1508600 (Functional Genomics Laboratory (NCATS/FGL), 2020):
Out of some 53,000 sequences screened, about 3,700 (7%) were called active.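 Rule for the calls: active = gene knockdowns whose robust z-score for IL-1 alpha signal is at least 2 or at most -2, so actives lie on both sides; inactive = the rest.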 The list shows a part of the results.

Experiment: Components of the Cytosolic LPS Sensing Pathway: Gene Identification via Genome-wide siRNA Screen;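 note: robust z of the log signal after scaling to non-targeting control siRNA wells of the plate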
Settings: RAW264.7 macrophages, IL-1a HTRF, actives lie on both sides, screened at 100 nM (by protocol), cells primed 5 h with Pam3CSK4 first
Outline: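 RAW264.7 mouse macrophages reverse-transfected with single siRNAs (100 nM final) for 48h, primed with Pam3CSK4 for 5 hours, then transfected with LipidA for 24 hour. Supernatant IL-1a read by HTRF; values normalized to negative-control median, log-transformed robust z-scores.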

Sequence	z-score
GCAAUACGCAAACAUUCACTT against Mplkip	inactive: 0.525
GCAAUGUGAGAAUUUUAACTT against Psg26	active: 2.03
GGAGGAUGAAACAAGCCUUTT against Tnfsf11	inactive: 0.565
GGUACAAACACGAUCAAGGTT against Aox4	inactive: 0.654
GGGACAAAAUUAUUCCUCCTT against Med14	inactive: -0.977
GCUUUACUUCUUCCUCAUUTT against Olfr924	inactive: -0.994
GGUCUUGGGUAUUGUCGUGTT against Adgrg1	inactive: 0.754
GGAACAUUGAACUGAUUUGTT against Mapre1	inactive: 0.351
GCUUCCAUCUUUACUAAGATT against Cpt2	inactive: 0.872
GCUGAACCUUUGAAAUUUCTT against Scmh1	inactive: -1.3
GGCUCGGUUUCAGUGUACUTT against Zscan5b	inactive: 1.92
CCAUUUUAUGGGAGUAUUATT against Mms22l	inactive: -0.0345
GGCAGAAUUCUUCACCUCCTT against P4ha2	inactive: -1.05
GCAAUGAAUUAGCCUUAAATT against Pkia	inactive: 1.42
GCAUUAGAUCAGACCAUUUTT against Ift46	inactive: 1.25
GGUCAACCUUCUGAAGCAGTT against Cfap100	inactive: -0.979
GCUUGAUAUAGUAUCCUUUTT against Prpf38b	active: -2.05
GGCCAGUGCCUUUGUGAUGTT against Mtnr1b	inactive: -1.28
GGUCAAAGGUGAAGAGAAATT against Chgb	inactive: 1.43
GCGGUUUUGUGUCAGGGACTT against 4833408A19Rik	inactive: -0.682
GGGAUUAUAGGAAAAUUCUTT against Nhlh1	inactive: 1.3
GUAAUUUAUCCUUUGCUGATT against Olfr378	inactive: 0.498

Sequence	z-score
GCGCUCCUUCUGUGAUUCATT against Olfm4	inactive: -0.564
CGCAGAGUUAAUUUCUUGUTT against Rchy1	inactive: 0.995
GGUUGUUUAUGCUUUCUCUTT against Arhgap32	inactive: -0.766
GGCCUUUGUUCAGUCCUCCTT against Zscan5b	inactive: 0.483
CCGGGAGAUUACAAGUAGCTT against Barhl2	inactive: -1.16
GGUGGUUACUAGGAACAAGTT against Sgpp2	inactive: -1.13
GGAAAGCCUUGGCUACAUGTT against Olfr97	inactive: -0.211
GCGCAACCUGUGCUUUUCUTT against Hoxd10	inactive: 1.56
GCUUUAUAAGGCUAUUGGATT against Rcl1	inactive: -0.894
GUCACUUGGCUUCCAUUGATT against Olfr510	inactive: -1.46
CCAGCCGUAUUACAACUACTT against Bpnt1	active: 2.12
CCAAAGAUACCAUAGGAUUTT against Zc3h12a	inactive: 1.05
GGAAUCUAUCUGAUCACCATT against Olfr1537	inactive: -0.431
CCAUCUGUCAUGACUACCUTT against Timm9	inactive: 0.911
CCAACUAAGUGAAAUUCCATT against Aspn	inactive: -1.26
CCCGGAUGAUGGAGAUAUUTT against Mnd1	inactive: -1
GCUGCUGGAGUGCAACUAATT against Tradd	inactive: 0.391
GGGCUCAAGAAAUAAAUCATT against Aspa	inactive: -0.591
GUCAUCUUCCUCCAGCACCTT against Olig2	inactive: -0.773
GGACAAAGAUUGAAGAAUGTT against Mib1	inactive: -0.0376
GGCUUUAGCAAUGGAAAAUTT against Ankhd1	inactive: -0.453
GCUUGAUCGAAGAAAGACATT against Tdrd3	inactive: 0.709

Given as comma-separated lines: part of the list above.
Sequence,z-score
GCGCUCCUUCUGUGAUUCATT against Olfm4,inactive: -0.564
CGCAGAGUUAAUUUCUUGUTT against Rchy1,inactive: 0.995
GGUUGUUUAUGCUUUCUCUTT against Arhgap32,inactive: -0.766

(continued)

Sequence	z-score
GCAUUUAUGGAGUACUUACTT against Colgalt1	inactive: -1.82
GGAUUUUCUUUCAGAUCCGTT against P2ry12	inactive: 0.762
CCCAGAGCAUGCCAUCAACTT against Orm3	inactive: -0.38
GCAAUGAAGAGUAACCGCUTT against Pak2	inactive: -0.0089
GGUUAUCGUUCUUGUCAAUTT against Ifih1	inactive: -1.16
UGACUUGUGAGAUUGAUCGTT against Fuom	inactive: -1.07
GGAAUUCCGAAUAUUCCAGTT against Tsen2	inactive: 1.51
GGCUUUUCAUUUGAUUAAGTT against Gpcpd1	inactive: -1.1
CGCAAGGCAUUCUCUACUUTT against Olfr1029	inactive: 1.1
GGCCUUCAACUUGGUUAAGTT against U2af2	inactive: -0.339
GGUUUUGACCAGACCAUUATT against Lsm8	inactive: 0.923
GGUGUGUGCAGGACUAAAUTT against Cacng3	inactive: 0.955
UGUGCAUAGUCAAUCUCAGTT against Bag5	inactive: 0.745
GCCACUACCGAUUUUCCCUTT against Lctl	active: -2.29
GCAAGGUAAGUUAGAUAUUTT against Armcx3	inactive: -0.318
GGCAAGAAACACAAAAAGATT against Zmat4	inactive: -1.08
GCGUGAAUACCUAAAUGUGTT against Rec8	inactive: 0.517
GGUUGAUUUAGAGAGGGCCTT against Gprc5c	inactive: -0.417
GCACCAUCAUAUGAUCACGTT against Cd83	inactive: 0.573
CCCAUUUCACUUCAGUUUGTT against Osbp2	inactive: -0.253
GGUGAAGAGAUUGACGUGGTT against Mycl	inactive: -1.34
CGUCGUGGUUGGUAUGUAATT against Sacs	inactive: -1.18

Part of the list above, field by field.
GCAAGGUAAGUUAGAUAUUTT against Armcx3
  z-score: inactive: -0.318
GGCAAGAAACACAAAAAGATT against Zmat4
  z-score: inactive: -1.08

Continuation:

Sequence	z-score
GGUGAAAUCGACAAUCAAGTT against Rpl10a	inactive: 0.0182
GGGCAACAAGACUUUGAAATT against Tmem63a	inactive: 0.45
GCUGGCCUAAGAGUCCCUUTT against Klra8	inactive: -0.891
GCAAAGCUUGAUAACAAUATT against Idh1	inactive: 0.509
GCCCAGAUUGUGCUAACAUTT against Prkacb	inactive: -0.466
GGAUCACUACCAUGAAAACTT against Bace1	inactive: -1.35
GCAGAUUUAUUCCUCACGATT against Itfg1	inactive: 0.562
GGAAUACAAACUGCUGUACTT against Urgcp	inactive: 0.138
GGAAAUAGAGGAAAGAGAATT against Rbm17	inactive: -0.235
UUUGUUGAUCUGUUCACCATT against Mbtps2	inactive: 0.208
CCUUAGAACUGAGAUAAGUTT against BC030500	inactive: 0.996
CCUUUAAGCUAAAUGAAGGTT against Scube2	inactive: -0.581
GGAAAUACUGGAUCAUCAATT against Cts3	inactive: 0.956
GCUUUGACUGGAAUGACGGTT against Pex7	active: -2.2
CGAAAGCUUCCGAAUCUUCTT against Rsph6a	inactive: -0.0807
GGAUAACAUAACUUUGGAUTT against Fam204a	inactive: -0.923
GGAGCUGUUUAUGUACUUUTT against Neil3	inactive: -1.55
GGCCAAAUCAUGGAUGCAGTT against Comt	inactive: -0.324
GGACCGACUUCGUCUCACUTT against Ccdc87	inactive: 0.603
GGGAAUUACUGUUUCUGUCTT against Uhrf1bp1l	inactive: 0.537
GCAGAUAACAACAGUUGAATT against B3gat2	inactive: 1.17
GCGGAUCAAUGUCUUGCCATT against Asl	inactive: -0.81

Sequence	z-score
CCGUUGCCUGAUAAGUUCUTT against Klf3	inactive: 0.576
GCGACUGGGAGAGAUAAGATT against Eogt	inactive: -0.818
GCCACACAGUUUCAUCUCATT against Alg12	inactive: -1.56
GGCUGUCUUUGUUCCAGUATT against Tnfrsf10b	inactive: 0.218
GGAAUUUCUGAAUGACUUATT against Zwilch	inactive: 0.0436
GGCAGCAAAAAGAAAAUCUTT against Slc22a30	inactive: 0.52
GGAAGGCACGUGAAUGGUGTT against AI606181	inactive: 0.45
GGCAUUAUUAACAAGAUUGTT against Eif2b1	inactive: 0.462
GCUGUAUCACAAGAAGCCGTT against Ccdc97	inactive: 0.361
GGUUGAAAUAAGAACCAUATT against Efcab2	inactive: -0.424
CGUAUACUGUGAUUGAUAUTT against Lcn5	inactive: -0.647
GGUAGAGAGACUGUAAUUATT against Ppp2r1b	inactive: -0.598
GGCUGCUUAUUUCUGAAUCTT against Pcdha11	inactive: -0.227
CCUAGAGCCGUGUGCAUACTT against Plp2	inactive: 0.891
GCUGGACCUUCAUGUAAUATT against Pcsk1	inactive: -0.234
GGCCGAUCUCUAAACAUAGTT against Sugp2	inactive: -0.759
GGAAGAGGCAGAAGUCAUCTT against Bcl2l12	inactive: 0.0791
GGUGUUCUUGAGCUGUGAGTT against Igfbp7	active: -2.32
GUAUUGGAAGCUCAUUUGATT against Pigf	inactive: 0.266

Not a retest: an excerpt of the list.
Sequence	z-score
GGUUGAAAUAAGAACCAUATT against Efcab2	inactive: -0.424
CGUAUACUGUGAUUGAUAUTT against Lcn5	inactive: -0.647
